Reference: publication PMC7317027
These are yes or no findings as the source states them, for the method shown. In cells and extracts the contact can be indirect. Binding calls can cover weak binding; strength is not graded here. Each block holds one molecule with its values, some of them ahead of it.

Legend:
[1] = target: T1, Inhibitor of differentiation 2 (Id2) (rat (endogenous in NRK-52E)) (UniProt P41137); test: co-IP; Dynabeads Protein G with rabbit anti-Id2 or mouse anti-Twist antibody, NRK-52E cell lysate supernatant, room temperature 1 h, Western blot; cells cultured in normal glucose (5.5 mmol/L) or high glucose (30 mmol/L), with or without 0.1 mg/mL oxymatrine
T1 sequence: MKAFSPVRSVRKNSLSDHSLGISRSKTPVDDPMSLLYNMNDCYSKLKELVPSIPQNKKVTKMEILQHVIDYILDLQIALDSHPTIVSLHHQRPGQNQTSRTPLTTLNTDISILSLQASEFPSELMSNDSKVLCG

[2] = target: Twist (rat (endogenous in NRK-52E)); test: as above

binding [1]: binds
Molecule: Twist (rat (endogenous in NRK-52E))

binding [2]: binds
B1: Inhibitor of differentiation 2 (Id2) (protein, UniProt P41137 1-134)
chain: T1 sequence
